Measured values: US20230256032A1 (Evelo Biosciences, Inc., priority 2020, published 2023)
At least one structure is not confirmed: it was looked up by name or label, or the drawing left a doubt.

System: imiquimod-induced psoriasis model
Test: Imiquimod (IMQ)-induced psoriasis-like skin inflammation model, back skin score and ear thickness
Assay type: in vivo, mice
Settings: Day 8

In the case of `C[C@@H]1C[C@H]2[C@@H]3CCC4=CC(=O)C=C[C@]4(C)[C@@]3(F)[C@@H](O)C[C@]2(C)[C@@]1(O)C(=O)CO` [dexamethasone], the ear inflammation score (IMQ applied to the ear daily) is reported as “significantly reduced” and the skin inflammation score (IMQ on shaved back daily for 8 days, scoring 1-4) is reported as “significantly reduced”.
